Data as given in publication PMC13558869.
Results are given in words; binding and its absence hold for the method and conditions named. In cells and extracts the contact can be indirect. These calls come from enrichment with a bait or labelling near it, and not all partners need be listed. For some of these results: No binding means not detected with the bait. For some of these results: Sequences can lack the tags named with a protein.

T1: UltraID_ZFP36L1 (UltraID fused to the N-terminus of ZFP36L1, co-expressed with GFP through P2A) (UniProt Q07352)
T1 sequence: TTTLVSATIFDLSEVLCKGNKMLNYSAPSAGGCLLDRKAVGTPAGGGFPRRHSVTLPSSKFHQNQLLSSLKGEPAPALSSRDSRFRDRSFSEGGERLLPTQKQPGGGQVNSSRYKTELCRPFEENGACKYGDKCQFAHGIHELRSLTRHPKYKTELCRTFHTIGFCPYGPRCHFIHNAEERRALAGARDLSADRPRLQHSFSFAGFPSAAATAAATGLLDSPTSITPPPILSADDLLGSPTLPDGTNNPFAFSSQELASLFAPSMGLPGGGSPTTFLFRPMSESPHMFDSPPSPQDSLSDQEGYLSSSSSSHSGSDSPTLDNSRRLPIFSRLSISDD

T2: ZFP36L1 (human (endogenous in primary T cells)) (UniProt Q07352)
T2 sequence: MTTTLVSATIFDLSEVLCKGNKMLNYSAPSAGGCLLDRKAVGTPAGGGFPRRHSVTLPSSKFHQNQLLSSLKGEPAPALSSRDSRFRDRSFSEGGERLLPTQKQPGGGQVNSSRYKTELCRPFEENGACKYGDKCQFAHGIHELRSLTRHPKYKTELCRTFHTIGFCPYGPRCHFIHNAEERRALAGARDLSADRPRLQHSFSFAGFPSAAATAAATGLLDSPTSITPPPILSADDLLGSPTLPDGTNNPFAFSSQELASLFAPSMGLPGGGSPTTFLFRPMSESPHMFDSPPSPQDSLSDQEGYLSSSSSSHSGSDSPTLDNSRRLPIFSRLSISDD

T3: ZFP36L1 (human (endogenous in primary T cells)), Q07352
T3 chain: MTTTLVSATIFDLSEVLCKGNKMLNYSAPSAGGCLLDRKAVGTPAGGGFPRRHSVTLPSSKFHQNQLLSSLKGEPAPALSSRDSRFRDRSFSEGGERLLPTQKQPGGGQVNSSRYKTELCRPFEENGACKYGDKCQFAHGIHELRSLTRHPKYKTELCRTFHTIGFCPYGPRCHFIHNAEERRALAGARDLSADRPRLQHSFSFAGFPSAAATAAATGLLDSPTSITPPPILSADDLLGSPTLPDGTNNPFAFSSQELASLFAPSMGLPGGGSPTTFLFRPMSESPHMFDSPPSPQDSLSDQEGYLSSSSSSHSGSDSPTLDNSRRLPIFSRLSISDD


Legend:
[1] = molecular target: T1, UltraID_ZFP36L1 (UltraID fused to the N-terminus of ZFP36L1, co-expressed with GFP through P2A); assay: proximity labelling; UltraID_L1 in retrovirally transduced primary human T cells, rested or re-activated 16 h with αCD3/αCD28, with or without 500 μM biotin; biotinylated proteins captured from lysate on streptavidin beads and identified by MS; controls UltraID_GFP and no biotin; T cell screens 1 and 2 (the network of Fig 3A also draws on the Jurkat screen)
[2] = molecular target: T1, UltraID_ZFP36L1 (UltraID fused to the N-terminus of ZFP36L1, co-expressed with GFP through P2A); assay: proximity labelling; time course: UltraID_L1 T cells re-activated with αCD3/αCD28 for 0, 2, 5, 16 h; biotin added for 2 h, for 3 h (2-5 h) or for 9 h (5-16 h); streptavidin capture, MS; supervised classification into shapes
[3] = molecular target: T2, ZFP36L1 (human (endogenous in primary T cells)); assay: affinity purification with mass spectrometry; Co-IP of endogenous ZFP36L1 with 10 μg anti-ZFP36L1 (1A3) or IgG control on Protein A Dynabeads, 4 h at 4°C, from cytoplasmic (1% digitonin) lysates of αCD3/αCD28-activated human CD3+ T cells at 0, 2, 5, 16 h; lysates untreated or treated with 200 U/ml RNAse A throughout; MS
[4] = molecular target: T3, ZFP36L1 (human (endogenous in primary T …)); assay: as above; settings: remark: other sources report otherwise

binding [1]	binding [2]	binding [3]	binding [4]	Binder
binds	binds	no binding		CSTF2T (protein, UniProt Q9H0L4 1-616) MSSLAVRDPAMDRSLRSVFVGNIPYEATEEQLKDIFSEVGSVVSFRLVYDRETGKPKGYGFCEYQDQETALSAMRNLNGREFSGRALRVDNAASEKNKEELKSLGPAAPIIDSPYGDPIDPEDAPESITRAVASLPPEQMFELMKQMKLCVQNSHQEARNMLLQNPQLAYALLQAQVVMRIMDPEIALKILHRKIHVTPLIPGKSQSVSVSGPGPGPGPGLCPGPNVLLNQQNPPAPQPQHLARRPVKDIPPLMQTPIQGGIPAPGPIPAAVPGAGPGSLTPGGAMQPQLGMPGVGPVPLERGQVQMSDPRAPIPRGPVTPGGLPPRGLLGDAPNDPRGGTLLSVTGEVEPRGYLGPPHQGPPMHHASGHDTRGPSSHEMRGGPLGDPRLLIGEPRGPMIDQRGLPMDGRGGRDSRAMETRAMETEVLETRVMERRGMETCAMETRGMEARGMDARGLEMRGPVPSSRGPMTGGIQGPGPINIGAGGPPQGPRQVPGISGVGNPGAGMQGTGIQGTGMQGAGIQGGGMQGAGIQGVSIQGGGIQGGGIQGASKQGGSQPSSFSPGQSQVTPQDQEKAALIMQVLQLTADQIAMLPPEQRQSILILKEQIQKSTGAS
binds	binds	binds		UPF1 (protein, UniProt Q92900 1-1129) MSVEAYGPSSQTLTFLDTEEAELLGADTQGSEFEFTDFTLPSQTQTPPGGPGGPGGGGAGGPGGAGAGAAAGQLDAQVGPEGILQNGAVDDSVAKTSQLLAELNFEEDEEDTYYTKDLPIHACSYCGIHDPACVVYCNTSKKWFCNGRGNTSGSHIVNHLVRAKCKEVTLHKDGPLGETVLECYNCGCRNVFLLGFIPAKADSVVVLLCRQPCASQSSLKDINWDSSQWQPLIQDRCFLSWLVKIPSEQEQLRARQITAQQINKLEELWKENPSATLEDLEKPGVDEEPQHVLLRYEDAYQYQNIFGPLVKLEADYDKKLKESQTQDNITVRWDLGLNKKRIAYFTLPKTDSGNEDLVIIWLRDMRLMQGDEICLRYKGDLAPLWKGIGHVIKVPDNYGDEIAIELRSSVGAPVEVTHNFQVDFVWKSTSFDRMQSALKTFAVDETSVSGYIYHKLLGHEVEDVIIKCQLPKRFTAQGLPDLNHSQVYAVKTVLQRPLSLIQGPPGTGKTVTSATIVYHLARQGNGPVLVCAPSNIAVDQLTEKIHQTGLKVVRLCAKSREAIDSPVSFLALHNQIRNMDSMPELQKLQQLKDETGELSSADEKRYRALKRTAERELLMNADVICCTCVGAGDPRLAKMQFRSILIDESTQATEPECMVPVVLGAKQLILVGDHCQLGPVVMCKKAAKAGLSQSLFERLVVLGIRPIRLQVQYRMHPALSAFPSNIFYEGSLQNGVTAADRVKKGFDFQWPQPDKPMFFYVTQGQEEIASSGTSYLNRTEAANVEKITTKLLKAGAKPDQIGIITPYEGQRSYLVQYMQFSGSLHTKLYQEVEIASVDAFQGREKDFIILSCVRANEHQGIGFLNDPRRLNVALTRARYGVIIVGNPKALSKQPLWNHLLNYYKEQKVLVEGPLNNLRESLMQFSKPRKLVNTINPGARFMTTAMYDAREAIIPGSVYDRSSQGRPSSMYFQTHDQIGMISAGPSHVAAMNIPIPFNLVMPPMPPPGYFGQANGPAAGRGTPKGKTGRGGRQKNRFGLPGPSQTNLPNSQASQDVASQPFSQGALTQGYISMSQPSQMSQPGLSQPELSQDSYLGDEFKSQIDVALSQDSTYQGERAYQHGGVTGLSQY
			no binding	GIGYF2, Q6Y7W6 1-1299 (protein) MAAETQTLNFGPEWLRALSSGGSITSPPLSPALPKYKLADYRYGREEMLALFLKDNKIPSDLLDKEFLPILQEEPLPPLALVPFTEEEQRNFSMSVNSAAVLRLTGRGGGGTVVGAPRGRSSSRGRGRGRGECGFYQRSFDEVEGVFGRGGGREMHRSQSWEERGDRRFEKPGRKDVGRPNFEEGGPTSVGRKHEFIRSESENWRIFREEQNGEDEDGGWRLAGSRRDGERWRPHSPDGPRSAGWREHMERRRRFEFDFRDRDDERGYRRVRSGSGSIDDDRDSLPEWCLEDAEEEMGTFDSSGAFLSLKKVQKEPIPEEQEMDFRPVDEGEECSDSEGSHNEEAKEPDKTNKKEGEKTDRVGVEASEETPQTSSSSARPGTPSDHQSQEASQFERKDEPKTEQTEKAEEETRMENSLPAKVPSRGDEMVADVQQPLSQIPSDTASPLLILPPPVPNPSPTLRPVETPVVGAPGMGSVSTEPDDEEGLKHLEQQAEKMVAYLQDSALDDERLASKLQEHRAKGVSIPLMHEAMQKWYYKDPQGEIQGPFNNQEMAEWFQAGYFTMSLLVKRACDESFQPLGDIMKMWGRVPFSPGPAPPPHMGELDQERLTRQQELTALYQMQHLQYQQFLIQQQYAQVLAQQQKAALSSQQQQQLALLLQQFQTLKMRISDQNIIPSVTRSVSVPDTGSIWELQPTASQPTVWEGGSVWDLPLDTTTPGPALEQLQQLEKAKAAKLEQERREAEMRAKREEEERKRQEELRRQQEEILRRQQEEERKRREEEELARRKQEEALRRQREQEIALRRQREEEERQQQEEALRRLEERRREEEERRKQEELLRKQEEEAAKWAREEEEAQRRLEENRLRMEEEAARLRHEEEERKRKELEVQRQKELMRQRQQQQEALRRLQQQQQQQQLAQMKLPSSSTWGQQSNTTACQSQATLSLAEIQKLEEERERQLREEQRRQQRELMKALQQQQQQQQQKLSGWGNVSKPSGTTKSLLEIQQEEARQMQKQQQQQQQHQQPNRARNNTHSNLHTSIGNSVWGSINTGPPNQWASDLVSSIWSNADTKNSNMGFWDDAVKEVGPRNSTNKNKNNASLSKSVGVSNRQNKKVEEEEKLLKLFQGVNKAQDGFTQWCEQMLHALNTANNLDVPTFVSFLKEVESPYEVHDYIRAYLGDTSEAKEFAKQFLERRAKQKANQQRQQQQLPQQQQQQPPQQPPQQPQQQDSVWGMNHSTLHSVFQTNQSNNQQSNFEAVQSGKKKKKQKMVRADPSLLGFSVNASSERLNMGEIETLDDY
